Reference: PubChem BioAssay AID504467 (National Center for Advancing Translational Sciences (NCATS), 2011)
About 7,700 (2.3%) of roughly 330,000 compounds were called active. Inconclusive results, whose numbers are uncertain, are shown with a selection of clear calls. Calls follow the shape of the dose curve; as a rule, active = well fitted inhibition curve with a large enough effect; inconclusive = small, poorly fitted or top-dose-only effect, or effect the other way; inactive = flat fitted curve, though single readings scatter. Potencies beside an inconclusive call are fits to weak or partial responses and may not hold up.

Test: qHTS screen for small molecules that inhibit ELG1-dependent DNA repair in human embryonic kidney (HEK293T) cells expressing luciferase-tagged ELG1; also: nearly all actives have a fitted effect of over 55% in size
Settings: HEK293T ELG1-luciferase reporter, luminescence, 16 h, DNA damage induced by 5-fluorouridine; activity change, negative = inhibition: at 46.1 µM (top of the series)
In short: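 Cells (2,000 per well) received 5-fluorouridine plus test compound or DMSO and were incubated 16 hr at 37 °C, 5% CO2. Luciferase activity was read by luminescence 30 min after ONE-Glo addition; signal suppression marked inhibition of damage-induced ELG1 function.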
% is scaled to controls: 0 for no effect and ±100 for the full control effect; potency is read from the fitted curve at half-maximal effect.

Question: With `COc1ccc2[nH]c(=O)c(CN(Cc3ccccc3)C(=S)NCC3CCCO3)cc2c1` (centres undefined) as the molecule, how does the Potency read?
Answer: The Potency was inconclusive: 29.1 µM [inhibitor, single point].

Question: Which Potency does the source give for `COc1ccccc1CCNC(=O)Cn1ccc2cc(S(=O)(=O)N3CCC(C)CC3)ccc21` here?
Answer: The Potency was inconclusive: 32.6 µM [inhibitor, partial curve, poor fit].

Question: For `COC(=O)c1sc(NC(=S)NC(=O)c2ccccc2Cl)nc1C`, which Potency is on record?
Answer: The Potency was inconclusive: 3.26 µM [activator, partial curve].

Question: For `NCCCC[C@H]1CNC(=O)C(=O)N1CCc1cccc2ccccc12`, which “activity change, negative = inhibition” value is on record?
Answer: Its value is inactive: 14%.

Question: With `CC(=O)Cc1nsc(NC(=O)c2ccc(-c3cc(Cl)ccc3Cl)o2)n1` as the molecule, how does the Potency read?
Answer: Its Potency is inconclusive: 25.9 µM [inhibitor, single point].

Question: For `C/C(=N\NC(=O)c1ccncc1)c1cccs1`, which Potency is on record?
Answer: Its Potency is inconclusive: 29.1 µM [activator, single point].

Question: For `Cc1ccnc(Nc2nc3ccccc3s2)n1`, which Potency is on record?
Answer: The Potency was inconclusive: 2.59 µM [activator, full curve].

Question: Which “activity change, negative = inhibition” value does the source give for `O=C(Nc1cc(S(=O)(=O)Nc2ccccc2Cl)ccc1O)c1sc2cc(Cl)ccc2c1Cl` here?
Answer: Its value is inactive: -7.09%.

Question: With `COc1ccc(-c2csc(NC(=O)c3ccco3)n2)cc1` as the molecule, how does the Potency read?
Answer: The Potency was inconclusive: 4.11 µM [activator, partial curve].

Question: Which Potency does the source give for `COC(=O)c1sc2ncccc2c1OCc1cccc(Cl)c1` here?
Answer: The Potency was inconclusive: 20.6 µM [inhibitor, partial curve, poor fit].

Question: With `COc1ccccc1CCn1cnc2c3cc(C)ccc3n(C)c2c1=O` as the molecule, how does the Potency read?
Answer: The Potency was inconclusive: 18.4 µM [inhibitor, partial curve, poor fit].

Question: With `O=C(COc1ccc(Cl)cc1Cl)Nc1ccc(C(=O)Nc2ccccc2C(=O)O)cc1` as the molecule, how does the “activity change, negative = inhibition” value read?
Answer: The value was inactive: -0.474%.

Question: For `CC(C)c1ccc(S(=O)(=O)N2CCN(C(=O)C3CCN(C(=O)c4ccc(F)cc4)CC3)CC2)cc1`, which “activity change, negative = inhibition” value is on record?
Answer: Its value is inactive: -14.8%.

Question: Which Potency does the source give for `Cc1ccc(S(=O)(=O)Nc2cc3c4c(c2)CC(=O)N4CCC3)cc1` here?
Answer: The Potency was inconclusive: 13 µM [activator, single point].

Question: For `Cc1cc(C)c(C(=O)CSc2n[nH]c(-c3ccncc3)n2)c(C)c1`, which Potency is on record?
Answer: The Potency was inconclusive: 32.6 µM [inhibitor, single point].

Question: With `COc1ccc(-c2nc(-c3cccnc3)no2)cc1` as the molecule, how does the Potency read?
Answer: The Potency was inconclusive: 10.3 µM [activator, partial curve].

Question: For `COC(=O)c1cn(NC(=O)COc2ccc(Cl)cc2)c(=O)c2ccccc12`, which Potency is on record?
Answer: The Potency was inconclusive: 20.6 µM [activator, partial curve, poor fit].

Question: Which Potency does the source give for `Cc1cc(C)c2c(c1)/C(=N/NC(=S)Nc1ccc(F)cc1)CCC2` here?
Answer: Its Potency is inconclusive: 25.9 µM [activator, partial curve, poor fit].

Question: For `Cc1cc(Br)ccc1NC(=O)c1sc2ncnc(N3CCN(c4ccccn4)CC3)c2c1C`, which Potency is on record?
Answer: The Potency was inconclusive: 14.6 µM [inhibitor, partial curve, poor fit].

Question: For `CCCCC(CC)CO` (centres undefined), which “activity change, negative = inhibition” value is on record?
Answer: The value was inactive: -12.1%.

Question: With `COc1ccc(CO[C@@H]2O[C@H](CO)[C@@H](O)[C@H](O)[C@H]2NC(C)=O)cc1OC` as the molecule, how does the “activity change, negative = inhibition” value read?
Answer: Its value is inactive: 10.6%.

Question: Which Potency does the source give for `Cc1cnc(NC(=O)C2CCCC2)s1` here?
Answer: Its Potency is inconclusive: 4.11 µM [inhibitor, partial curve, poor fit].

Question: Which Potency does the source give for `O=C(CCNC(=O)C1CCN(S(=O)(=O)c2ccc(F)cc2)CC1)Nc1ccccc1` here?
Answer: The Potency was inconclusive: 18.3 µM [activator, partial curve, poor fit].

Question: For `COc1ccc(N2CCN(C(=O)CN(CCc3ccccc3)S(C)(=O)=O)CC2)cc1`, which Potency is on record?
Answer: Its Potency is inconclusive: 25.9 µM [inhibitor, partial curve].

Question: Which Potency does the source give for `CCCC(=O)Nc1ccc(NC(=O)c2ccccc2)nc1` here?
Answer: Its Potency is inconclusive: 2.06 µM [activator, partial curve].

Question: For `COc1ccc(-c2csc(C)n2)cc1`, which Potency is on record?
Answer: Its Potency is inconclusive: 20.6 µM [activator, partial curve].

Question: Which Potency does the source give for `CCOc1ccc(S(=O)(=O)Nc2cccc(C(=O)N3CCN(c4ccc(OC)cc4)CC3)c2)cc1` here?
Answer: The Potency was inconclusive: 29.1 µM [inhibitor, single point].

Question: With `Cc1ccc2c(c1)N(CC(=O)N1CCCCC1)C(=O)C(C)O2` (centres undefined) as the molecule, how does the “activity change, negative = inhibition” value read?
Answer: Its value is inactive: -5.41%.

Question: With `COc1ccc(CCNC(=O)CN2C(=O)COc3ccc(S(=O)(=O)N4CCCC4)cc32)cc1OC` as the molecule, how does the Potency read?
Answer: The Potency was inconclusive: 18.3 µM [activator, single point].

Question: With `CCN1CCN(C(=O)c2ccc3c(=O)n(C4CCCC4)c(=S)[nH]c3c2)CC1` as the molecule, how does the “activity change, negative = inhibition” value read?
Answer: Its value is inactive: -7.9%.

Question: With `COc1ccc(-n2nc(C(=O)NCC(=O)NCc3ccc(F)cc3)c3ccccc3c2=O)cc1` as the molecule, how does the Potency read?
Answer: The Potency was active: 16.4 µM.

Question: For `COc1ccc(CCNC(=O)c2c[nH]c3ccccc3c2=O)cc1OC`, which Potency is on record?
Answer: The Potency was inconclusive: 25.9 µM [inhibitor, single point].

Question: With `COc1ccc2[nH]c3c(c2c1)[C@@H]1CCN2C(=O)CCC[C@H](C3)[C@H]12` as the molecule, how does the “activity change, negative = inhibition” value read?
Answer: The value was inactive: -2.33%.

Question: For `O=C(/C=C/c1cccs1)N1CCN(c2ccc(O)cc2)CC1`, which Potency is on record?
Answer: The Potency was inconclusive: 4.61 µM [inhibitor, full curve].

Question: Which Potency does the source give for `Oc1cc(O)cc(/C=C/c2ccc(O)c(O)c2)c1` here?
Answer: The Potency was inconclusive: 12.6 µM [activator, partial curve].

Question: With `Cn1c(SCC(=O)NNC(=O)Nc2ccccc2)nnc1-c1ccccc1` as the molecule, how does the “activity change, negative = inhibition” value read?
Answer: The value was inactive: -3.08%.

Question: With `COc1cc2c(cc1OC)-c1cc(Nc3cccc(F)c3)nc(=O)n1CC2` as the molecule, how does the Potency read?
Answer: The Potency was inconclusive: 6.51 µM [inhibitor, single point].

Question: With `Cc1ccc(OCc2cc(C(=O)N3CCN(c4ccccc4)CC3)no2)cc1C` as the molecule, how does the Potency read?
Answer: Its Potency is inconclusive: 14.6 µM [activator, partial curve].

Question: With `c1ccc(OCCOCCSc2ncccn2)cc1` as the molecule, how does the Potency read?
Answer: Its Potency is inconclusive: 6.51 µM [activator, partial curve, poor fit].

Question: For `O=C(CCc1ccccc1)Nc1cccc(NC(=O)CCc2ccccc2)c1`, which Potency is on record?
Answer: Its Potency is inconclusive: 29.1 µM [inhibitor, single point].

Question: Which “activity change, negative = inhibition” value does the source give for `Cc1cc(C)c(OCC(=O)N/N=C/c2ccc3c(c2)OCO3)c(C)c1` here?
Answer: The value was inactive: -1.98%.

Question: For `CCCC1/C(=N/O)CC(c2ccccc2)NC1c1ccccc1` (centres undefined), which Potency is on record?
Answer: Its Potency is inconclusive: 29.1 µM [inhibitor, single point].

Question: For `Cc1cnc(C(=O)OC(C)C(=O)Nc2ccc3c(c2)OCCO3)cn1` (centres undefined), which “activity change, negative = inhibition” value is on record?
Answer: Its value is inactive: 13.7%.

Question: With `COc1ccc(CC(=O)Nc2cc(C)ccc2O)cc1OC` as the molecule, how does the Potency read?
Answer: Its Potency is inconclusive: 23.1 µM [inhibitor, single point].

Question: With `Cc1ccc(C)c(OCCC(=O)OCC(=O)Nc2cccc(S(=O)(=O)N3CCCC3)c2)c1` as the molecule, how does the “activity change, negative = inhibition” value read?
Answer: Its value is inactive: 4.27%.

Question: For `CC(=O)c1ccc(NC(=O)c2cc(Cl)sc2Cl)cc1`, which Potency is on record?
Answer: Its Potency is inconclusive: 18.4 µM [activator, partial curve].

Question: For `CN=c1c([N+](=O)[O-])nn(-c2ccc3c(c2)OCCO3)n1O`, which activity change, negative = inhibition is on record?
Answer: The activity change, negative = inhibition was inconclusive: 53.7% [activator].

Question: For `CC(C)CNC(=O)C1CCN(Cc2ccc(OCc3ccccc3)cc2)CC1`, which Potency is on record?
Answer: Its Potency is inconclusive: 14.6 µM [activator, partial curve].

Question: For `CC(Oc1ccc(Cl)cc1)C(=O)Nc1cccc(S(=O)(=O)N2CCOCC2)c1` (centres undefined), which Potency is on record?
Answer: Its Potency is inconclusive: 20.6 µM [inhibitor, single point].

Question: With `Cc1ccc(C)c(N2CCN(C(=O)Cn3ncn4cccc4c3=O)CC2)c1` as the molecule, how does the “activity change, negative = inhibition” value read?
Answer: The value was inactive: -9.5%.

Question: Which Potency does the source give for `Nc1nc2ccccc2n1C(=O)c1cccs1` here?
Answer: The Potency was inconclusive: 2.31 µM [activator, partial curve].

Question: With `O=C(NN=C1CCCCCC1)c1cccs1` as the molecule, how does the Potency read?
Answer: Its Potency is inconclusive: 18.3 µM [activator, single point].

Question: For `Cc1nc2ccc(NC(=O)c3nn(C(C)C)c(=O)c4ccccc34)cc2s1`, which Potency is on record?
Answer: Its Potency is inconclusive: 25.9 µM [inhibitor, single point].

Question: Which “activity change, negative = inhibition” value does the source give for `COc1ccccc1N(CC(=O)N1CCOCC1)S(C)(=O)=O` here?
Answer: Its value is inactive: -1.5%.

Question: With `Nc1nc(-c2cccnc2)nn1C(=O)c1ccccc1Cl` as the molecule, how does the Potency read?
Answer: The Potency was inconclusive: 18.3 µM [activator, partial curve, poor fit].

Question: For `CCOC(=O)C(NC(=O)c1ccccc1)(Nc1cc(C)on1)C(F)(F)F` (centres undefined), which Potency is on record?
Answer: Its Potency is inconclusive: 20.6 µM [inhibitor, single point].

Question: With `Cc1ccc(S(=O)(=O)N2CCCC2)cc1C(=O)N1CCC(C)CC1` as the molecule, how does the “activity change, negative = inhibition” value read?
Answer: Its value is inactive: 0.194%.

Question: Which “activity change, negative = inhibition” value does the source give for `O=C(O)c1ccc(-c2nnn(Cc3ccccc3F)n2)cc1` here?
Answer: The value was inactive: 7.56%.

Question: With `COc1ccccc1/C=C/C=N/n1c(-c2n[nH]c3c2CCC3)n[nH]c1=S` as the molecule, how does the Potency read?
Answer: Its Potency is inconclusive: 14.6 µM [inhibitor, partial curve, poor fit].

Question: Which Potency does the source give for `O=c1oc(Nc2ccc(F)cc2)nc2ccccc12` here?
Answer: The Potency was inconclusive: 11.2 µM [activator, partial curve, poor fit].

Question: Which Potency does the source give for `CC(C)c1ccc(/C=N/N2CCCCC2)cc1` here?
Answer: Its Potency is inconclusive: 20.6 µM [activator, partial curve].

Question: With `CCN(C(C)=O)c1nnc(CSc2nc3ccccc3s2)s1` as the molecule, how does the Potency read?
Answer: The Potency was inconclusive: 11.6 µM [activator, single point].

Question: For `Cc1ccc(S(=O)(=O)N2C[C@@H]3[C@H]4CC[C@H](C4)[C@@H]3[C@@H](C)C2CC(=O)c2ccccc2)cc1` (some centres undefined), which “activity change, negative = inhibition” value is on record?
Answer: The value was inactive: -1.96%.

Question: With `Nc1scc(-c2ccncc2)c1Cl` as the molecule, how does the Potency read?
Answer: Its Potency is inconclusive: 18.4 µM [activator, partial curve, poor fit].

Question: Which Potency does the source give for `CC[N+]1(CC)CC2CCC(C)(C1)C2(C)C` (centres undefined) here?
Answer: Its Potency is inconclusive: 6.51 µM [inhibitor, single point].

Question: For `CCc1c(C)nc2c(C#N)c[nH]n2c1=O`, which Potency is on record?
Answer: The Potency was inconclusive: 3.26 µM [inhibitor, single point].

Question: With `CC(C)(C)c1cc(NC(=O)CSc2nnc(NCc3ccccc3)s2)n(-c2ccccc2)n1` as the molecule, how does the Potency read?
Answer: The Potency was active: 23.1 µM.

Question: Which “activity change, negative = inhibition” value does the source give for `CCO[C@H]1OC(C(=O)NCc2nc3ccccc3[nH]2)=C[C@@H](c2ccc(C(F)(F)F)cc2)[C@@H]1CCCO` here?
Answer: Its value is inactive: -20%.

Question: With `COc1ccc(OC)c(C(=O)N2CCC(n3nccc3NC(=O)CC(C)C)CC2)c1` as the molecule, how does the Potency read?
Answer: The Potency was inconclusive: 20.6 µM [activator, single point].
